Test results published in article PMC9585242.
Results are given in words; binding and its absence hold for the method and conditions named. In cells and extracts the contact can be indirect. A yes stands for co-enrichment or nearness to the bait. Other partners may have been found. For some of these results: No binding means not detected with the bait.

Protein sequences, listed by entry. Tags and fused reporters are not part of them. Lines headed by an entry give the natural chain unless they say otherwise; changes in a name come on top.
UniProt Q383M3: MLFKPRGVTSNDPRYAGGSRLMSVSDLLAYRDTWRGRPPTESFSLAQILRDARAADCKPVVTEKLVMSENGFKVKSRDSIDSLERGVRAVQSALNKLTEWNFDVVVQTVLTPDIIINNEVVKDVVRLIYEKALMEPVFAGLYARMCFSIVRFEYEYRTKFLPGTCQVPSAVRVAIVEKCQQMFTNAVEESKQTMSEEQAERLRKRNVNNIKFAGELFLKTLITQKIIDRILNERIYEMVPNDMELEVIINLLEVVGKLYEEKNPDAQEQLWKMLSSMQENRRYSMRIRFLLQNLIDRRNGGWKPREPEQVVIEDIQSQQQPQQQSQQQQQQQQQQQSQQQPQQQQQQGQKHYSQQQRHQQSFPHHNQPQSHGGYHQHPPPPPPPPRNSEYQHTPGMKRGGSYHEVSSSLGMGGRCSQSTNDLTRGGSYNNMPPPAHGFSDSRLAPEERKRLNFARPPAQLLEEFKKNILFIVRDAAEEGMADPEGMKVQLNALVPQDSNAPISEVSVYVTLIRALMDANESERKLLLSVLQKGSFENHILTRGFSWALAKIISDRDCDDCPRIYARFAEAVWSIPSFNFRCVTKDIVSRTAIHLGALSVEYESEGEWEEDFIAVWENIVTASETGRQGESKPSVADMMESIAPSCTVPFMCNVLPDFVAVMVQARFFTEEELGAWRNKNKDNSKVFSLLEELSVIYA
UniProt Q585M4: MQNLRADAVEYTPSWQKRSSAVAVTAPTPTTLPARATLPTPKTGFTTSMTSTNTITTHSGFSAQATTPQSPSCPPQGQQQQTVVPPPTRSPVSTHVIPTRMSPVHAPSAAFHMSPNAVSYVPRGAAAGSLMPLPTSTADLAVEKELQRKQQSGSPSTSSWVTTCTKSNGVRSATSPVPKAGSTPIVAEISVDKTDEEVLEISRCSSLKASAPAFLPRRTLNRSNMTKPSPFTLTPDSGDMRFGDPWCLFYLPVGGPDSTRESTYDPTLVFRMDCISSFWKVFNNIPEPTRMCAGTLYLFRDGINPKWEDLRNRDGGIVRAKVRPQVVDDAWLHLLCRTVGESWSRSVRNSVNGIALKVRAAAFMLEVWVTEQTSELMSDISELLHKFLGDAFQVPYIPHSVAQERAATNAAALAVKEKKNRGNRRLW
UniProt Q57UX0: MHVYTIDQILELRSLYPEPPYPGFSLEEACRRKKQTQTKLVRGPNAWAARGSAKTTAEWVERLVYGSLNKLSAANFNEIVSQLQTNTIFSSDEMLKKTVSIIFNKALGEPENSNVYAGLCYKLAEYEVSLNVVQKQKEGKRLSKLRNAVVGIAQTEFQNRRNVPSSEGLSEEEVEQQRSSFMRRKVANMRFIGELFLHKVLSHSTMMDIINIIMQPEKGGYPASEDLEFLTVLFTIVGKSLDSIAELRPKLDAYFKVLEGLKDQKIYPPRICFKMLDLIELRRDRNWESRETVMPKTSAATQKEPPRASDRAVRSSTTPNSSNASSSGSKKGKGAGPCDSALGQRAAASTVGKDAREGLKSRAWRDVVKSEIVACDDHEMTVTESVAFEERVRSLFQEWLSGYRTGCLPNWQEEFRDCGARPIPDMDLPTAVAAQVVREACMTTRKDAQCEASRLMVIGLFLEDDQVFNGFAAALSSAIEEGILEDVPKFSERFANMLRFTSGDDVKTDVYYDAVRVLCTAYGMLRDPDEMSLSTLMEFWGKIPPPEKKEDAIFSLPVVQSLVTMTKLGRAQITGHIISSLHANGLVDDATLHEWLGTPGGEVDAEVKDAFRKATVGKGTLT
UniProt Q383A4: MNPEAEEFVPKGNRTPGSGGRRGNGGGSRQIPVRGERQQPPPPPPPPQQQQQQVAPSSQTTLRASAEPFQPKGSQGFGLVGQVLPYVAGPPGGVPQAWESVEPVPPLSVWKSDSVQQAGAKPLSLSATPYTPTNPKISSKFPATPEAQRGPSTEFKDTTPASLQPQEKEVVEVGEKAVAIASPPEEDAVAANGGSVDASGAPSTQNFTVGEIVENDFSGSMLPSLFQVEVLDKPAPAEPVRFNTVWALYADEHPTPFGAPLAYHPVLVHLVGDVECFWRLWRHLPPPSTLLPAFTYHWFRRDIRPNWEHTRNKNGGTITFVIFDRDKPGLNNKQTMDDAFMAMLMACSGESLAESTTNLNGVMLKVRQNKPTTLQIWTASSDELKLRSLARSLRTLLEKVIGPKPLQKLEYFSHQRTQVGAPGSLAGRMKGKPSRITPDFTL

Columns and labels:
Experiment in all cases: affinity purification with mass spectrometry; eYFP-tagged bait captured from lysate of cryogenically ground T. brucei procyclic cells (100 mM KCl, 1 mM MgCl2, 50 mM Hepes pH 7.2, 5% glycerol; no detergent, no RNase added) on llama anti-GFP nanobody (LaG-16-G4S-LaG-2) Dynabeads; biological triplicates; enrichment against the eYFP-DRBD4 control, or pairwise between the two eIF4E and the two eIF4G baits
[1] = molecular target: Eukaryotic translation initiation factor 4G type 4 (Trypanosoma brucei (endogenous in procyclic Lister 427 cells)) (UniProt Q383M3)
[2] = molecular target: Eukaryotic translation initiation factor 4E-4 (Trypanosoma brucei (endogenous in procyclic Lister 427 cells)) (UniProt Q585M4)
[3] = molecular target: Eukaryotic translation initiation factor 4 gamma 3 (Trypanosoma brucei (endogenous in procyclic Lister 427 cells)) (UniProt Q57UX0)
[4] = molecular target: Eukaryotic translation initiation factor 4E-3 (Trypanosoma brucei (endogenous in procyclic Lister 427 cells)) (UniProt Q383A4)

B1: Polyadenylate-binding protein 1 (protein, UniProt Q38E63 1-566)
chain: MTIAAQGVPSGPSATKPLQVASLYVGDLDPAINEPQLVDIFKPYGTILNVRVCRDIITQRSLGYGYVNYDDVNSASKAMEELNFKRVGEKCIRIMWQQRDPALRYSGSGNIFVKNLKEEVDSRELSLIFKKFGEILSCKVMDDESGKSRGYGFVHFKDDDAAKAAIEKMNGDKEHADADKAALYVANFIRRNARLAALVANFTNVYIKQLLPTVDKDVIEKFFSKFGGITSAAICKDKNGRAFAFCNFEKHDDAVKAIEASHDQEVEGVTQPGEKLYVQRAQPRSERLIALRQKYMQCQSLGNNLYVRNFDAEFTEKDLNELFKEYGVIRSCRVMTDANGISRGFGFVSFENADQANAALREMNGRMLNGKPLVVNIAQRRDQRLTMLKLQLQQRLQMMMHHMHPPPFGMPGHPLQRRNARSGGRGNRPHPRQQQPQPQPEPQPPLATTVPPAAAHSVMFTAPSMGFSAVPRTPQASPAIAPDTPPLPPISAEDLQQMSVDEQRAALGDRLYIKVHELAPDHAPKITGMFLEMNPKEALALLSNPKLMHEKVTEALCVLKVHASSA
B1 was tested. Which binding [1] did it give?
Its binding is “no binding”.

What about the binding [2] of the same binder?
The binding was “binds”.

And the binding [3]?
Its binding is “binds”.

And the binding [4]?
The binding was “no binding”.
